Results deposited as PubChem BioAssay AID1508597 (Cure First, 2020)
Purpose: 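Knock-downs altering ovarian cancer cell survival with or without PARP inhibitor rucaparib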 (primary screen). System: human ovarian carcinoma lines grown from tumours: OCI-P5x (papillary serous) and OCI-C5x (clear cell). Reagent: siRNA pool against human genes, 1.25 pmol siRNA per well. Timing: 72 h or 96 h, depending on the cell culture. Conditions: rucaparib 20 µM (about IC30) or vehicle, present until read-out. Rucaparib or vehicle: Rucaparib. Cell line: OCI-C5x (clear cell). Detection: 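Luminescent ATP-based viability assay read 72 or 96 h after transfection, depending on culture, given as normalised percent viability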. Direction: viability, normalised: higher = more viable cells remaining. Call rule: 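a well counts as a hit if its normalised viability is under 80 percent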. Calls: active = viability under 80%; inactive = viability 80% or more.
This is an unselected part of the about 2,100 reagents, in one setting of the screen. 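Calls flag viability under 80% in either arm, not effects specific to rucaparib; the reference for percent is not stated.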 A reagent listed more than once was tested more than once; the source does not tell the runs apart. The record does not give: the 100% reference.

gene symbol,technical replicate,"viability, normalised (%)",Outcome
POLL (DNA polymerase lambda),1,55.2,active
POLL (DNA polymerase lambda),2,27.7,active
POLL (DNA polymerase lambda),3,39.3,active
CENPV (centromere protein V),1,42.1,active
CENPV (centromere protein V),2,41.8,active
CENPV (centromere protein V),3,37,active
COX6C (cytochrome c oxidase subunit 6C),1,65.6,active
COX6C (cytochrome c oxidase subunit 6C),2,50.8,active
COX6C (cytochrome c oxidase subunit 6C),3,50.1,active
IGHMBP2 (immunoglobulin mu DNA binding protein 2),1,37.2,active
IGHMBP2 (immunoglobulin mu DNA binding protein 2),1,38.8,active
IGHMBP2 (immunoglobulin mu DNA binding protein 2),2,65.1,active
IGHMBP2 (immunoglobulin mu DNA binding protein 2),2,33.1,active
IGHMBP2 (immunoglobulin mu DNA binding protein 2),3,61.8,active
IGHMBP2 (immunoglobulin mu DNA binding protein 2),3,34.1,active
PTTG2 (pituitary tumor-transforming 2),1,76.8,active
PTTG2 (pituitary tumor-transforming 2),2,54.2,active
PTTG2 (pituitary tumor-transforming 2),3,32.4,active
PTK7 (protein tyrosine kinase 7 (inactive)),1,47.1,active
PTK7 (protein tyrosine kinase 7 (inactive)),2,36.1,active
PTK7 (protein tyrosine kinase 7 (inactive)),3,46.3,active
"TEX14 (testis expressed 14, intercellular bridge forming factor)",1,43.3,active
"TEX14 (testis expressed 14, intercellular bridge forming factor)",2,50.9,active
"TEX14 (testis expressed 14, intercellular bridge forming factor)",3,61.1,active
NAP1L2 (nucleosome assembly protein 1 like 2),1,75.5,active
NAP1L2 (nucleosome assembly protein 1 like 2),2,41.2,active
NAP1L2 (nucleosome assembly protein 1 like 2),3,33,active
NIPBL (NIPBL cohesin loading factor),1,44.9,active
NIPBL (NIPBL cohesin loading factor),2,52.1,active
NIPBL (NIPBL cohesin loading factor),3,27.2,active
BRCA2 (BRCA2 DNA repair associated),1,70.9,active
BRCA2 (BRCA2 DNA repair associated),1,53.2,active
BRCA2 (BRCA2 DNA repair associated),1,50.1,active
BRCA2 (BRCA2 DNA repair associated),2,37.4,active
BRCA2 (BRCA2 DNA repair associated),2,53.5,active
BRCA2 (BRCA2 DNA repair associated),2,60,active
BRCA2 (BRCA2 DNA repair associated),3,38.6,active
BRCA2 (BRCA2 DNA repair associated),3,62.6,active
BRCA2 (BRCA2 DNA repair associated),3,67.7,active
CDK6 (cyclin dependent kinase 6),1,59.9,active
CDK6 (cyclin dependent kinase 6),2,59.6,active
CDK6 (cyclin dependent kinase 6),3,49.5,active
PTK2B (protein tyrosine kinase 2 beta),1,69.4,active
PTK2B (protein tyrosine kinase 2 beta),2,49,active
PTK2B (protein tyrosine kinase 2 beta),3,39.7,active
HDAC9 (histone deacetylase 9),1,45.9,active
HDAC9 (histone deacetylase 9),2,33.7,active
HDAC9 (histone deacetylase 9),3,59,active

Continued (10 carried over from the part before).
gene symbol,technical replicate,"viability, normalised (%)",Outcome
BRCA2 (BRCA2 DNA repair associated),3,67.7,active
CDK6 (cyclin dependent kinase 6),1,59.9,active
CDK6 (cyclin dependent kinase 6),2,59.6,active
CDK6 (cyclin dependent kinase 6),3,49.5,active
PTK2B (protein tyrosine kinase 2 beta),1,69.4,active
PTK2B (protein tyrosine kinase 2 beta),2,49,active
PTK2B (protein tyrosine kinase 2 beta),3,39.7,active
HDAC9 (histone deacetylase 9),1,45.9,active
HDAC9 (histone deacetylase 9),2,33.7,active
HDAC9 (histone deacetylase 9),3,59,active
ERN2 (endoplasmic reticulum to nucleus signaling 2),1,85,inactive
ERN2 (endoplasmic reticulum to nucleus signaling 2),2,63.4,active
ERN2 (endoplasmic reticulum to nucleus signaling 2),3,53.8,active
FGFR3 (fibroblast growth factor receptor 3),1,48.9,active
FGFR3 (fibroblast growth factor receptor 3),2,48.2,active
FGFR3 (fibroblast growth factor receptor 3),3,60.7,active
PRPF19 (pre-mRNA processing factor 19),1,50.3,active
PRPF19 (pre-mRNA processing factor 19),1,30.4,active
PRPF19 (pre-mRNA processing factor 19),2,49.5,active
PRPF19 (pre-mRNA processing factor 19),2,37.4,active
PRPF19 (pre-mRNA processing factor 19),3,49.3,active
PRPF19 (pre-mRNA processing factor 19),3,38.4,active
CDYL (chromodomain Y like),1,63.2,active
CDYL (chromodomain Y like),2,50.1,active
CDYL (chromodomain Y like),3,34.6,active
RIOK3 (RIO kinase 3),1,61.2,active
RIOK3 (RIO kinase 3),2,57.7,active
RIOK3 (RIO kinase 3),3,68.5,active
STYK1 (STY kinase 1),1,67.6,active
STYK1 (STY kinase 1),2,48.8,active
STYK1 (STY kinase 1),3,48.5,active
PGGT1B (protein geranylgeranyltransferase type I subunit beta),1,48.2,active
PGGT1B (protein geranylgeranyltransferase type I subunit beta),2,41.3,active
PGGT1B (protein geranylgeranyltransferase type I subunit beta),3,32.6,active
WHR1 (winged helix repair factor 1),1,45.9,active
WHR1 (winged helix repair factor 1),2,47.1,active
WHR1 (winged helix repair factor 1),3,63,active
